Reference: paper PMC8880864

Target: T1, SpbK (full length) (B. subtilis (ICEBs1)) (UniProt P96648)
T1 sequence: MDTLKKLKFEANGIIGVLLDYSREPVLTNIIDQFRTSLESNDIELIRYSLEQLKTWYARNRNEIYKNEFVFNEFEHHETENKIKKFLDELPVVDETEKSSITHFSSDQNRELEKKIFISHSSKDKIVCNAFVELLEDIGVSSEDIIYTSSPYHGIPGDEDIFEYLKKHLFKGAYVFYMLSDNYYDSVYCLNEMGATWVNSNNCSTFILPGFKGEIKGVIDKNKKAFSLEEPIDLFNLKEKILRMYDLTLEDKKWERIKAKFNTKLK
Test: two-hybrid; GAL4 activation domain (pGAD-C1) and GAL4 DNA binding domain (pGBDU-C3) fusions in S. cerevisiae PJ69-4A; spotted on SD medium, scored for growth in the absence of adenine, 30 °C

## YonE (phage SPß of B. subtilis)
  binding: no binding

Results are given in words; binding and its absence hold for the method and conditions named.
